Experimental data from publication PMC8140133.
Results are given in words; binding and its absence hold for the method and conditions named. Binding seen in cells or lysates may run through a third protein. A yes stands for co-enrichment or nearness to the bait. Other partners may have been found.

Protein sequences, listed by entry. Tags and fused reporters are not part of them.
UniProt Q8TD26: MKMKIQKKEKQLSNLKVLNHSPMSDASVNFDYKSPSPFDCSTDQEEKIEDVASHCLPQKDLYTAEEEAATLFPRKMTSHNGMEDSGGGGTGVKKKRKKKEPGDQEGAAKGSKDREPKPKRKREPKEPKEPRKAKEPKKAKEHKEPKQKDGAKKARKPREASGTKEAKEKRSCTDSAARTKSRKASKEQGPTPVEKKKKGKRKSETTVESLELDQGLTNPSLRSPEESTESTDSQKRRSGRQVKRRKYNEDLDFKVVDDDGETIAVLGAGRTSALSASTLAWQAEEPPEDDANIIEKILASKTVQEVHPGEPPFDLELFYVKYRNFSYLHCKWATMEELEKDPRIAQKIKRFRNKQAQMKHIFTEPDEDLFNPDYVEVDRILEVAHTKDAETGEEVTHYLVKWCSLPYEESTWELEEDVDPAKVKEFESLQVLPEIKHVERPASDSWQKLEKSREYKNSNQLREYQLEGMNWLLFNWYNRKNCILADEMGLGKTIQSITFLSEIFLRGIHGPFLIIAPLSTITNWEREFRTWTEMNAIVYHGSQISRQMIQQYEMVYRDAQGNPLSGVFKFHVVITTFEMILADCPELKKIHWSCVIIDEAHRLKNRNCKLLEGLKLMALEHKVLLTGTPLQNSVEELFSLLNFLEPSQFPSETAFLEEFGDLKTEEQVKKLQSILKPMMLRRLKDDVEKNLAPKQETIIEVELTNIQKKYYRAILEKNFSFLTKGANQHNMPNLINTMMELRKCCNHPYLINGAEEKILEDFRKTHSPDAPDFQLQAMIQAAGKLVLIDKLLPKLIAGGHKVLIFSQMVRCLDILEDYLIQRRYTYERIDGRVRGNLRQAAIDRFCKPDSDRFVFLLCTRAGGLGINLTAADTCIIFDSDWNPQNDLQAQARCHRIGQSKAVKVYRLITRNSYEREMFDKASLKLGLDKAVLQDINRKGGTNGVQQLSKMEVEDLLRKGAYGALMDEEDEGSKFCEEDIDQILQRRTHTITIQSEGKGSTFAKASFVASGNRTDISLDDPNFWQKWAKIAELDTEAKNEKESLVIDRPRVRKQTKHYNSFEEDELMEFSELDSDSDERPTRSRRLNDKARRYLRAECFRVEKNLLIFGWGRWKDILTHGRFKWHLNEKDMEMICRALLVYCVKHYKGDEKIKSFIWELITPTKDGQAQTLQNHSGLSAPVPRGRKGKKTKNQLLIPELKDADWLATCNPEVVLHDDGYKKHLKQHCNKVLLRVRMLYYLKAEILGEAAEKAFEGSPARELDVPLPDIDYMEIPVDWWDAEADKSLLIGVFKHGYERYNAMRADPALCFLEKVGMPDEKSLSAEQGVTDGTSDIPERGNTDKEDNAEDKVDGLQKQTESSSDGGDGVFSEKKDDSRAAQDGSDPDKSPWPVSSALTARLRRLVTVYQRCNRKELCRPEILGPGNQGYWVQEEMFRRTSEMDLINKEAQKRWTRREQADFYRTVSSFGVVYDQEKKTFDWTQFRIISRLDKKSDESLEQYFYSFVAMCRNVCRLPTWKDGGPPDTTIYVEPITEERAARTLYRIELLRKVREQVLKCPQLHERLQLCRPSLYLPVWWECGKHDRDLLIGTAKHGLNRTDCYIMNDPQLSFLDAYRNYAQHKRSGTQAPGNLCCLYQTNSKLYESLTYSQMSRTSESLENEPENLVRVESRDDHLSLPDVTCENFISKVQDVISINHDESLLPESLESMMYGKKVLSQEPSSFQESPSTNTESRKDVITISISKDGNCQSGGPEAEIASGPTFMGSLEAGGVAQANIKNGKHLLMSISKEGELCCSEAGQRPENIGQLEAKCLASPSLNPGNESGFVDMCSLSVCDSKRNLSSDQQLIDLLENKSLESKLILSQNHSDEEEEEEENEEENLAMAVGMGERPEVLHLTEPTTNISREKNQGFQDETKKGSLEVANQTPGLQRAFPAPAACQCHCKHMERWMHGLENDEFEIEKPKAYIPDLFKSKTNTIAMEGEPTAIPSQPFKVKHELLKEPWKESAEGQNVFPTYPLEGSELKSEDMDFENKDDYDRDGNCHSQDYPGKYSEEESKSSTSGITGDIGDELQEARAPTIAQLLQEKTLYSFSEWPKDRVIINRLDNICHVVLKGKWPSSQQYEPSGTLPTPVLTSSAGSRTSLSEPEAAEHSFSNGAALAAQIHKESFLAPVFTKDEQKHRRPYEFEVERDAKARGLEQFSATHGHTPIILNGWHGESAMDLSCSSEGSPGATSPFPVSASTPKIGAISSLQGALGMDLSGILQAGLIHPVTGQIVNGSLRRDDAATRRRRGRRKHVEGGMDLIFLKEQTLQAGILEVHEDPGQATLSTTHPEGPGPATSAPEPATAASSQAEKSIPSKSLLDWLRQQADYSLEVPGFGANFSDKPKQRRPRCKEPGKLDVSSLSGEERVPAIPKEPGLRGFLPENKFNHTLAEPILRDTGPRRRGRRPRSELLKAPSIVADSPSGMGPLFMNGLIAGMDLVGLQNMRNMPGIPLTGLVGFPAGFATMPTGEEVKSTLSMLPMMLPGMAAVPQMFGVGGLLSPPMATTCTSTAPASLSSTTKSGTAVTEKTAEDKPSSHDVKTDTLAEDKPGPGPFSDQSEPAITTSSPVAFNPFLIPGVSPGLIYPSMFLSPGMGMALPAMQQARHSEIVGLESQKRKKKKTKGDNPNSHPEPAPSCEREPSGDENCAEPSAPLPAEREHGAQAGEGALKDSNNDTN
UniProt O96019: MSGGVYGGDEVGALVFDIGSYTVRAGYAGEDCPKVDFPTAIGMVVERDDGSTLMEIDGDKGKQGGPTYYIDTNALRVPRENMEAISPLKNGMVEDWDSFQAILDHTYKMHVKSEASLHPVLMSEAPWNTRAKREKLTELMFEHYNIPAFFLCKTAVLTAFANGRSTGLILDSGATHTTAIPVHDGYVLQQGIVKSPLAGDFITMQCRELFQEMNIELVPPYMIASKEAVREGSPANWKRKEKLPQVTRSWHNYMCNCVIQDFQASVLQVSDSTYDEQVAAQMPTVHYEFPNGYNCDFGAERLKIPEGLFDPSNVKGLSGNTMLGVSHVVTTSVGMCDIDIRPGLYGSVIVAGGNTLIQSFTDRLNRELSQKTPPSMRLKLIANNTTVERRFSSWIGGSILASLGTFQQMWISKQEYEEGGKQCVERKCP
UniProt P51532: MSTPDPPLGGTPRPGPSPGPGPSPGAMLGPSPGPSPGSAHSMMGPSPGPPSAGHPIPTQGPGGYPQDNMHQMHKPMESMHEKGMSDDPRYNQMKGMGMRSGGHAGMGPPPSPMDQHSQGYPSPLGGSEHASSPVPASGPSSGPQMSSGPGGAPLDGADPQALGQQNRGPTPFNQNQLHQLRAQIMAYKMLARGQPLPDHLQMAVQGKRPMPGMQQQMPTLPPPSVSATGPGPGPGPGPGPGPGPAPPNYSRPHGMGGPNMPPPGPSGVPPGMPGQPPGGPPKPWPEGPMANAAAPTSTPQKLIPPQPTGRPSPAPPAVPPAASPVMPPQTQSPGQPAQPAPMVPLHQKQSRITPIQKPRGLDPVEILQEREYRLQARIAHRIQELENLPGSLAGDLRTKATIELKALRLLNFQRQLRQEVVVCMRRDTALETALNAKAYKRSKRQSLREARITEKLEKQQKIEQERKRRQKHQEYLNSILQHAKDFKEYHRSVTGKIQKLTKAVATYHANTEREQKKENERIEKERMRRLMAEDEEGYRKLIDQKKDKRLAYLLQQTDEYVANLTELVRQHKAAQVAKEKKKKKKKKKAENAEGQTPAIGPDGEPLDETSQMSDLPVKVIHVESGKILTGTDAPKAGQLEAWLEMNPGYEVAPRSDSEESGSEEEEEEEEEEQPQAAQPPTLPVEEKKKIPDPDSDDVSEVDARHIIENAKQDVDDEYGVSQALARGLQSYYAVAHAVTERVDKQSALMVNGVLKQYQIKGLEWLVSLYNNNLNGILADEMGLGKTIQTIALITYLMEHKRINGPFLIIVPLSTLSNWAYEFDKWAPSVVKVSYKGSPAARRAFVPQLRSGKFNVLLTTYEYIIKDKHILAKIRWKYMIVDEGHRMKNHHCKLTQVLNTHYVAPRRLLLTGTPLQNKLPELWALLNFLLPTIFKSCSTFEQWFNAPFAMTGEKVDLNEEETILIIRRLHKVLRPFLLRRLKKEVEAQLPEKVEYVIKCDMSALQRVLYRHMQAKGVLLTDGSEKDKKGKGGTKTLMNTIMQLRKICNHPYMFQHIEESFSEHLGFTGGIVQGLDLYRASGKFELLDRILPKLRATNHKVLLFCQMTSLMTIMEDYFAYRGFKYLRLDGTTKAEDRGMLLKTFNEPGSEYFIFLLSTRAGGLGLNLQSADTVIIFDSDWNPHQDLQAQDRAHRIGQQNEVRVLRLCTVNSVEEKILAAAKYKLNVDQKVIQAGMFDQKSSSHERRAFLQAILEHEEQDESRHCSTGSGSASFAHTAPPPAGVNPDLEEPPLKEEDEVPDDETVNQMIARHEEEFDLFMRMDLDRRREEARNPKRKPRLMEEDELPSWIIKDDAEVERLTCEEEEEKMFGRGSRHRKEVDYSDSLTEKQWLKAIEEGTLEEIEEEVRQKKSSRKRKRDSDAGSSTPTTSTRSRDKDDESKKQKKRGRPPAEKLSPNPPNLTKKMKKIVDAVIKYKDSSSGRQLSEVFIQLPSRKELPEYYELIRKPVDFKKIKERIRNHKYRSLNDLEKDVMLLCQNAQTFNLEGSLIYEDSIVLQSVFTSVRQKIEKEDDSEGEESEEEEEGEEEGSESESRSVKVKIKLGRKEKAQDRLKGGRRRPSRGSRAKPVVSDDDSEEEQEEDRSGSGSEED
UniProt Q92922: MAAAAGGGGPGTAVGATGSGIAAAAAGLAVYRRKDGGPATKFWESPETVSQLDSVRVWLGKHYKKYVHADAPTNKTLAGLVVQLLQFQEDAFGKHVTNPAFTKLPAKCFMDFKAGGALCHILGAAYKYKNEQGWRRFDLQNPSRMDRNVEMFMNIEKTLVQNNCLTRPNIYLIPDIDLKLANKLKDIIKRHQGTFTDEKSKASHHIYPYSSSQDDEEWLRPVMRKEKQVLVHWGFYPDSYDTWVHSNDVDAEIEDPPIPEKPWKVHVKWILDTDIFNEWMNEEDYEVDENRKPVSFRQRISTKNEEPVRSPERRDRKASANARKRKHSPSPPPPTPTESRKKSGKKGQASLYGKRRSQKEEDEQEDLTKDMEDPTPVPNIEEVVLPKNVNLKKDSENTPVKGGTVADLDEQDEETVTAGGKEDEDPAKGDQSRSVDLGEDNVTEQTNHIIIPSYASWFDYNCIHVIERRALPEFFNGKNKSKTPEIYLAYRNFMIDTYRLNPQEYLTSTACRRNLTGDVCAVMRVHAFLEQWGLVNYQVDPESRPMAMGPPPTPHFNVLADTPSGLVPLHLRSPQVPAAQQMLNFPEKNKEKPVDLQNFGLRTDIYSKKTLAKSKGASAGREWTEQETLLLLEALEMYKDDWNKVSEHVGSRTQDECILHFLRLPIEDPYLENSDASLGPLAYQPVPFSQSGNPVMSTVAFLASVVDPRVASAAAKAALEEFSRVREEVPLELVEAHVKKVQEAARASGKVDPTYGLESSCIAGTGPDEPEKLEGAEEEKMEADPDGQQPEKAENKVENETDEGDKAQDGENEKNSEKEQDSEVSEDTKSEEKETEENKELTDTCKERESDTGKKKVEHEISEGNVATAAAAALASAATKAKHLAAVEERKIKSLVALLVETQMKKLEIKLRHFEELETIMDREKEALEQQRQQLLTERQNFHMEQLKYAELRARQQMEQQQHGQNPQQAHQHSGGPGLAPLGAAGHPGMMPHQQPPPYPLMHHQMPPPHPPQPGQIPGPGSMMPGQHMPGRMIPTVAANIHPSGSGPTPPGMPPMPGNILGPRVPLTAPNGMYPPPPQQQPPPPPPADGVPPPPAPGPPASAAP

Target: full-length wild-type HA-tagged CHD6 (human) (UniProt Q8TD26)
Test: affinity purification with mass spectrometry; anti-HA immunoprecipitation of HA-tagged CHD6 from Benzonase-treated nuclear lysate (IP buffer: 150 mM LiCl, 50 mM Tris-HCl pH 7.5, 1 mM EDTA, 0.5% Empigen) of doxycycline-induced iPSCs, overnight at 4 °C; label-free quantitative MS; steady state, 2 h starvation or 1 h etoposide

Row | Substance | binding
1 | ACTL6A (BAF53) (from UniProt O96019 1-429) | binds
2 | SMARCA4 (BRG1) (from UniProt P51532 1-1647) | binds
3 | SMARCC1 (BAF155) (from UniProt Q92922 1-1105) | binds
